Test results: the supplement of paper PMC12067093, “Discovery and optimisation of a covalent ligand for TRIM25 and its application to targeted protein ubiquitination” (Chemical Science, 2025)
The list shows a part of the results.

Compound: CC1Cc2ccccc2N1C(=O)C1CCCN(C1)C(=O)CCl (mixture of isomers) [TRIM25 ligand 11 (diastereomer mixture)]
Test: probe-labelled cysteine peptide fold change vs DMSO (competition) (log2 fold change); higher = less target engagement (more negative = stronger competition)
Conditions: THP-1, incubation time: 4 h
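Also: competitive chemoproteomic profiling in live THP-1 cells with an iodoacetamide desthiobiotin (IA-DTB) probe, comparing probe-labelled peptide intensities in compound-treated cells against DMSO-treated controls.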

Target	probe-labelled cysteine peptide fold change (10 µM)	probe-labelled cysteine peptide fold change (50 µM)
HNRNPUL1_Q9BUJ2_421_SKAECEILMMVGLPAAGK (UniProt Q9BUJ2)	-0.14	-0.0295
HSF1_Q00613_373_CLSVACLDK (UniProt Q00613)	-0.0613	-0.215
HSPA4L_O95757_245_NFDEALVDYFCDEFK (UniProt O95757)	-0.0832	0.0767
HSPA1A_P0DMV8_17_AAAIGIDLGTTYSCVGVFQHGK (UniProt P0DMV8)	-0.106	0.167
HPS3_Q969F9_254_TEEGISNEISQLESDDFVICQK (UniProt Q969F9)	-0.0867	-0.36
HNRNPA1_P09651_43_SHFEQWGTLTDCVVMRDPNTKR (UniProt P09651)	-0.241	-0.324
HNMT_P50135_31_FLNHSTEHQCMQEFMDK (UniProt P50135)	0.0155	-0.145
HSP90AB1_P08238_366_VFIMDSCDELIPEYLNFIR (UniProt P08238)	-0.0155	-0.053
HNRNPA1_P09651_43_SHFEQWGTLTDCVVMRDPNTK (UniProt P09651)	-0.0525	-0.0919
HSPA9_P38646_608_MEEFKDQLPADECNK (UniProt P38646)	-0.338	-0.172
HSPA4_P34932_34+38_CTPACISFGPK (UniProt P34932)	-0.17	-0.134
HSP90AA1_P07900_529_KHGLEVIYMIEPIDEYCVQQLK (UniProt P07900)	-0.0494	-0.149
HPS1_Q92902_180_LIHPQLCELCIEALER (UniProt Q92902)	0.0295	-0.0241
HNRNPL_P14866_472_QPAIMPGQSYGLEDGSCSYK (UniProt P14866)	-0.154	-0.0544
HNRNPUL1_Q9BUJ2_377_NCAVEFNFGQR (UniProt Q9BUJ2)	0.0728	-0.00236
HSPA4_P34932_779_ELTSTCSPIISK (UniProt P34932)	0.0381	0.059
HNRNPF_P52597_290_YGDSEFTVQSTTGHCVHMR (UniProt P52597)	0.0985	0.052
HSD17B10_Q99714_91_FGRVDVAVNCAGIAVASK (UniProt Q99714)	-0.206	-0.122
HSP90AA1_P07900_374_RVFIMDNCEELIPEYLNFIR (UniProt P07900)	-0.217	-0.189
HPS5_Q9UPZ3_37_CTSIAVSR (UniProt Q9UPZ3)	0.138	0.265
HSPBP1_Q9NZL4_201_LLDRDACDTVR (UniProt Q9NZL4)	-0.108	-0.14

Reprinted at random: 2 entries already listed.
Target	probe-labelled cysteine peptide fold change (10 µM)	probe-labelled cysteine peptide fold change (50 µM)
HSPA1A_P0DMV8_17_AAAIGIDLGTTYSCVGVFQHGK (UniProt P0DMV8)	-0.106	0.167
HNRNPA1_P09651_43_SHFEQWGTLTDCVVMRDPNTK (UniProt P09651)	-0.0525	-0.0919
